PubChem BioAssay AID1224830 | NIAID – 2016
Here is one part, drawn at random, of about 18,000 deposited reagents. About 2,900 of all reagents (16%) count as active. 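Calls are made per well; low scores hint the gene aids the LPS response, high scores that it dampens it.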 Repeated entries: four replicate wells of each siRNA pool.

- Purpose: 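Regulators of TLR4 signalling towards TNF-alpha in macrophage-like cells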 (primary screen)
- Cell system: human THP-1 monocytic leukaemia cells, TNF dual-luciferase reporter clone, PMA-differentiated to macrophage-like cells
- Reagents: siRNA pool against human genes, 50 nM
- Timing: LPS for 4 h, given about 3 days after siRNA transfection
- Treatment: bacterial LPS (TLR4 ligand), 10 ng/ml
- Measurement: 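TNF firefly reporter luminescence divided by renilla, normalised to the plate median, then turned into a robust z-score for each replicate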
- Scale: TNF reporter robust z-score: higher = stronger TNF reporter response to LPS
- Hit rule: 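a well is active when its z-score exceeds 2.8 or falls below -1.5; control wells carry no call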

Gene | TNF reporter robust z-score | activity call
DRG1 (developmentally regulated GTP binding protein 1) | 1.76 | inactive
DRG1 (developmentally regulated GTP binding protein 1) | 1.16 | inactive
DRG1 (developmentally regulated GTP binding protein 1) | 1.27 | inactive
DRG1 (developmentally regulated GTP binding protein 1) | 2.54 | inactive
KCNC2 (potassium voltage-gated channel subfamily C member 2) | -0.44 | inactive
KCNC2 (potassium voltage-gated channel subfamily C member 2) | 0.11 | inactive
KCNC2 (potassium voltage-gated channel subfamily C member 2) | 0.64 | inactive
KCNC2 (potassium voltage-gated channel subfamily C member 2) | 0.3 | inactive
OR2T10 (olfactory receptor family 2 subfamily T member 10) | -0.94 | inactive
OR2T10 (olfactory receptor family 2 subfamily T member 10) | 0.05 | inactive
OR2T10 (olfactory receptor family 2 subfamily T member 10) | -0.19 | inactive
OR2T10 (olfactory receptor family 2 subfamily T member 10) | 0.01 | inactive
TMEM54 (transmembrane protein 54) | 0.41 | inactive
TMEM54 (transmembrane protein 54) | -0.25 | inactive
TMEM54 (transmembrane protein 54) | -0.55 | inactive
TMEM54 (transmembrane protein 54) | -0.16 | inactive
RGS9 (regulator of G protein signaling 9) | -0.5 | inactive
RGS9 (regulator of G protein signaling 9) | -0.75 | inactive
RGS9 (regulator of G protein signaling 9) | -1.66 | active
RGS9 (regulator of G protein signaling 9) | -1.13 | inactive
RNASE6 (ribonuclease A family member 6) | -1.49 | inactive
RNASE6 (ribonuclease A family member 6) | -1.54 | active
RNASE6 (ribonuclease A family member 6) | -0.2 | inactive
RNASE6 (ribonuclease A family member 6) | -0.58 | inactive
DEXI (Dexi homolog) | 0.1 | inactive
DEXI (Dexi homolog) | -0.45 | inactive
DEXI (Dexi homolog) | 0.01 | inactive
DEXI (Dexi homolog) | 0.61 | inactive
APOC4 (apolipoprotein C4) | -0.73 | inactive
APOC4 (apolipoprotein C4) | 0.6 | inactive
APOC4 (apolipoprotein C4) | 1.51 | inactive
APOC4 (apolipoprotein C4) | 0.8 | inactive
ANGEL2 (angel homolog 2) | 0.18 | inactive
ANGEL2 (angel homolog 2) | -0.04 | inactive
ANGEL2 (angel homolog 2) | 0.61 | inactive
ANGEL2 (angel homolog 2) | 1.45 | inactive
CYP7B1 (cytochrome P450 family 7 subfamily B member 1) | 0.22 | inactive
CYP7B1 (cytochrome P450 family 7 subfamily B member 1) | 0.34 | inactive
CYP7B1 (cytochrome P450 family 7 subfamily B member 1) | -0.3 | inactive
CYP7B1 (cytochrome P450 family 7 subfamily B member 1) | 0.88 | inactive
KLK13 (kallikrein related peptidase 13) | 2.03 | inactive
KLK13 (kallikrein related peptidase 13) | 1.94 | inactive
KLK13 (kallikrein related peptidase 13) | 1.05 | inactive
KLK13 (kallikrein related peptidase 13) | 3.21 | active
ZNF687 (zinc finger protein 687) | 2.08 | inactive
ZNF687 (zinc finger protein 687) | 2.8 | active
ZNF687 (zinc finger protein 687) | 1.11 | inactive
ZNF687 (zinc finger protein 687) | 2.09 | inactive
NCAPD3 (non-SMC condensin II complex subunit D3) | 2.68 | inactive
NCAPD3 (non-SMC condensin II complex subunit D3) | 1.67 | inactive
NCAPD3 (non-SMC condensin II complex subunit D3) | 1.33 | inactive
NCAPD3 (non-SMC condensin II complex subunit D3) | 2.21 | inactive
CXCR2 (C-X-C motif chemokine receptor 2) | -0.15 | inactive
CXCR2 (C-X-C motif chemokine receptor 2) | 0.09 | inactive
CXCR2 (C-X-C motif chemokine receptor 2) | -0.33 | inactive
CXCR2 (C-X-C motif chemokine receptor 2) | -0.12 | inactive
IL2RB (interleukin 2 receptor subunit beta) | -0.54 | inactive
IL2RB (interleukin 2 receptor subunit beta) | -1.05 | inactive
IL2RB (interleukin 2 receptor subunit beta) | 0.23 | inactive
IL2RB (interleukin 2 receptor subunit beta) | 0.77 | inactive
ITGB8 (integrin subunit beta 8) | 2 | inactive
ITGB8 (integrin subunit beta 8) | 0.81 | inactive
ITGB8 (integrin subunit beta 8) | 0.17 | inactive
ITGB8 (integrin subunit beta 8) | 0.06 | inactive
TNFSF14 (TNF superfamily member 14) | 1.4 | inactive
TNFSF14 (TNF superfamily member 14) | 1.17 | inactive
TNFSF14 (TNF superfamily member 14) | 1.54 | inactive
TNFSF14 (TNF superfamily member 14) | 2.13 | inactive
TFAP2C (transcription factor AP-2 gamma) | -0.47 | inactive
TFAP2C (transcription factor AP-2 gamma) | 0.13 | inactive
TFAP2C (transcription factor AP-2 gamma) | -0.54 | inactive
TFAP2C (transcription factor AP-2 gamma) | -0.08 | inactive
GLYAT (glycine-N-acyltransferase) | 0.13 | inactive
GLYAT (glycine-N-acyltransferase) | 1.82 | inactive
GLYAT (glycine-N-acyltransferase) | 2.37 | inactive
GLYAT (glycine-N-acyltransferase) | 2.27 | inactive
SPTBN1 (spectrin beta, non-erythrocytic 1) | 0.31 | inactive
SPTBN1 (spectrin beta, non-erythrocytic 1) | 0.01 | inactive
SPTBN1 (spectrin beta, non-erythrocytic 1) | -1.03 | inactive
SPTBN1 (spectrin beta, non-erythrocytic 1) | -1.37 | inactive
SYT3 (synaptotagmin 3) | -0.17 | inactive
SYT3 (synaptotagmin 3) | 1.32 | inactive
SYT3 (synaptotagmin 3) | 0.31 | inactive
SYT3 (synaptotagmin 3) | 0.07 | inactive
SAMD13 (sterile alpha motif domain containing 13) | 0.15 | inactive
SAMD13 (sterile alpha motif domain containing 13) | 0.13 | inactive
SAMD13 (sterile alpha motif domain containing 13) | 0.5 | inactive
SAMD13 (sterile alpha motif domain containing 13) | 0.94 | inactive
HIGD2A (HIG1 hypoxia inducible domain family member 2A) | 0.94 | inactive
HIGD2A (HIG1 hypoxia inducible domain family member 2A) | 1.18 | inactive
HIGD2A (HIG1 hypoxia inducible domain family member 2A) | 1.64 | inactive
HIGD2A (HIG1 hypoxia inducible domain family member 2A) | 1.26 | inactive
GDPD4 (glycerophosphodiester phosphodiesterase domain containing 4) | 4.09 | active
GDPD4 (glycerophosphodiester phosphodiesterase domain containing 4) | 3.08 | active
GDPD4 (glycerophosphodiester phosphodiesterase domain containing 4) | 1.62 | inactive
GDPD4 (glycerophosphodiester phosphodiesterase domain containing 4) | 0 | inactive
PRAMEF8 (PRAME family member 8) | 0.14 | inactive
PRAMEF8 (PRAME family member 8) | 0.44 | inactive
PRAMEF8 (PRAME family member 8) | 1.29 | inactive
PRAMEF8 (PRAME family member 8) | -0.38 | inactive
BLCAP (BLCAP apoptosis inducing factor) | 0.47 | inactive
BLCAP (BLCAP apoptosis inducing factor) | 1.27 | inactive
BLCAP (BLCAP apoptosis inducing factor) | -0.05 | inactive
BLCAP (BLCAP apoptosis inducing factor) | 1.24 | inactive
RBM10 (RNA binding motif protein 10) | -0.35 | inactive
RBM10 (RNA binding motif protein 10) | -0.6 | inactive
RBM10 (RNA binding motif protein 10) | -0.92 | inactive
RBM10 (RNA binding motif protein 10) | -0.74 | inactive
UQCRFS1 | -0.34 | inactive
UQCRFS1 | 0.12 | inactive
UQCRFS1 | -0.33 | inactive
UQCRFS1 | -0.31 | inactive
CCDC126 (coiled-coil domain containing 126) | -1.07 | inactive
CCDC126 (coiled-coil domain containing 126) | -0.71 | inactive
CCDC126 (coiled-coil domain containing 126) | 0.12 | inactive
CCDC126 (coiled-coil domain containing 126) | -0.92 | inactive
BRPF3 (bromodomain and PHD finger containing 3) | 0.87 | inactive
BRPF3 (bromodomain and PHD finger containing 3) | 1.72 | inactive
BRPF3 (bromodomain and PHD finger containing 3) | 3.36 | active
BRPF3 (bromodomain and PHD finger containing 3) | 1.15 | inactive
DCAF1 (DDB1 and CUL4 associated factor 1) | 1.37 | inactive
DCAF1 (DDB1 and CUL4 associated factor 1) | 0.97 | inactive
DCAF1 (DDB1 and CUL4 associated factor 1) | 6.18 | active
DCAF1 (DDB1 and CUL4 associated factor 1) | 4.14 | active
CYP2C18 (cytochrome P450 family 2 subfamily C member 18) | 0.09 | inactive
CYP2C18 (cytochrome P450 family 2 subfamily C member 18) | 0.15 | inactive
CYP2C18 (cytochrome P450 family 2 subfamily C member 18) | 0.06 | inactive
CYP2C18 (cytochrome P450 family 2 subfamily C member 18) | 0.51 | inactive
ZSCAN10 (zinc finger and SCAN domain containing 10) | 1.25 | inactive
ZSCAN10 (zinc finger and SCAN domain containing 10) | 0.57 | inactive
ZSCAN10 (zinc finger and SCAN domain containing 10) | 2.73 | inactive
ZSCAN10 (zinc finger and SCAN domain containing 10) | 1.87 | inactive
NXF1 (nuclear RNA export factor 1) | -1.9 | active
NXF1 (nuclear RNA export factor 1) | -1.66 | active
NXF1 (nuclear RNA export factor 1) | -1.88 | active
NXF1 (nuclear RNA export factor 1) | -1.58 | active
ADAM2 (ADAM metallopeptidase domain 2) | -0.94 | inactive
ADAM2 (ADAM metallopeptidase domain 2) | 0.04 | inactive
ADAM2 (ADAM metallopeptidase domain 2) | -0.99 | inactive
ADAM2 (ADAM metallopeptidase domain 2) | -0.35 | inactive

Records above marked active, once more:
Gene | TNF reporter robust z-score | activity call
RGS9 (regulator of G protein signaling 9) | -1.66 | active
RNASE6 (ribonuclease A family member 6) | -1.54 | active
KLK13 (kallikrein related peptidase 13) | 3.21 | active
ZNF687 (zinc finger protein 687) | 2.8 | active
GDPD4 (glycerophosphodiester phosphodiesterase domain containing 4) | 4.09 | active
GDPD4 (glycerophosphodiester phosphodiesterase domain containing 4) | 3.08 | active
BRPF3 (bromodomain and PHD finger containing 3) | 3.36 | active
DCAF1 (DDB1 and CUL4 associated factor 1) | 6.18 | active
DCAF1 (DDB1 and CUL4 associated factor 1) | 4.14 | active
NXF1 (nuclear RNA export factor 1) | -1.9 | active
NXF1 (nuclear RNA export factor 1) | -1.66 | active
NXF1 (nuclear RNA export factor 1) | -1.88 | active
NXF1 (nuclear RNA export factor 1) | -1.58 | active
